Experimental data taken from patent US20250213547A1, “METHODS OF TREATING NEUROLOGICAL DISEASES” (priority 2022, published 2025).

Tested on: plasma 24HC
Test: Adult DEE patients: pharmacodynamics, plasma 24HC
Assay type: in vivo, human
Conditions: tablet
Method: Blood sample collection and analyses for measuring 24HC was performed as previously described in example 5.

## O=C(c1cccnc1-c1ccncc1)N1CCC(O)(Cc2ccccc2)CC1 [soticlestat]
  soticlestat steady-state AUC above which 24HC lowering plateaus: greater than 800 ng×h/mL
